These results are taken from PMC2860243.

Sequences of proteins named here, by UniProt entry; tags and fusion partners are left off.
UniProt P20263: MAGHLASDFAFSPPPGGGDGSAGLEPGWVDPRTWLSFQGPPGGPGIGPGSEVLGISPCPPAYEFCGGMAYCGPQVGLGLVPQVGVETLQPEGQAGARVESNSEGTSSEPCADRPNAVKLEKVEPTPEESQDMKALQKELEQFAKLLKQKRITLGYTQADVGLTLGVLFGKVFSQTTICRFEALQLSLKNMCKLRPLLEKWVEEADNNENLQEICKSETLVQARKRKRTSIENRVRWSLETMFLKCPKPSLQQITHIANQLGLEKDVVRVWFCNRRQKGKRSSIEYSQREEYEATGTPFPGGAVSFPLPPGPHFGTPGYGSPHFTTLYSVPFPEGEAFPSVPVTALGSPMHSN
UniProt P56546: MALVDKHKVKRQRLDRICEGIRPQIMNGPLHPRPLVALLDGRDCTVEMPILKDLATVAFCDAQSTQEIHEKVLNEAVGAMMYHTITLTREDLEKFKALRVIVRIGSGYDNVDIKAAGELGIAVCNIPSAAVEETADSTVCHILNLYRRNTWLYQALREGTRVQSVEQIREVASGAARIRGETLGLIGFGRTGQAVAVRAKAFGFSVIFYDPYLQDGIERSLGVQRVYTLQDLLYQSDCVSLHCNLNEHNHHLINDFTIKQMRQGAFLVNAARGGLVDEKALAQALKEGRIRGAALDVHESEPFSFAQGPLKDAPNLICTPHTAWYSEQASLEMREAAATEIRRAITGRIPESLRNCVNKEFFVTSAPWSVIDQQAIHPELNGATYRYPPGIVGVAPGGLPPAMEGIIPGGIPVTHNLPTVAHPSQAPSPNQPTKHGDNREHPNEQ
UniProt Q9Z0Z7: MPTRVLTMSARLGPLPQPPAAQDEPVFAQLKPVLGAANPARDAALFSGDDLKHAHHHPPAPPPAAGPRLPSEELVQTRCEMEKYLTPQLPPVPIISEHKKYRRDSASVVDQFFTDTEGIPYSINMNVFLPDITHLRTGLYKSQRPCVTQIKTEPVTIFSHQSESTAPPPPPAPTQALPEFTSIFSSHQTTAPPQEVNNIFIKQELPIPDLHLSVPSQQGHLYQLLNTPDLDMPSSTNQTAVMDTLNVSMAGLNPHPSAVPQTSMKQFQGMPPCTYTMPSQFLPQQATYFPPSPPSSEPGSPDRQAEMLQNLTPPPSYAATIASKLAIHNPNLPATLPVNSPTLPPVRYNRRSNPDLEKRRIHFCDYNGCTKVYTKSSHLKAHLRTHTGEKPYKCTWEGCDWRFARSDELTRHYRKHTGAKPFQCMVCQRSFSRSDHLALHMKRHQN
UniProt Q9DBR0: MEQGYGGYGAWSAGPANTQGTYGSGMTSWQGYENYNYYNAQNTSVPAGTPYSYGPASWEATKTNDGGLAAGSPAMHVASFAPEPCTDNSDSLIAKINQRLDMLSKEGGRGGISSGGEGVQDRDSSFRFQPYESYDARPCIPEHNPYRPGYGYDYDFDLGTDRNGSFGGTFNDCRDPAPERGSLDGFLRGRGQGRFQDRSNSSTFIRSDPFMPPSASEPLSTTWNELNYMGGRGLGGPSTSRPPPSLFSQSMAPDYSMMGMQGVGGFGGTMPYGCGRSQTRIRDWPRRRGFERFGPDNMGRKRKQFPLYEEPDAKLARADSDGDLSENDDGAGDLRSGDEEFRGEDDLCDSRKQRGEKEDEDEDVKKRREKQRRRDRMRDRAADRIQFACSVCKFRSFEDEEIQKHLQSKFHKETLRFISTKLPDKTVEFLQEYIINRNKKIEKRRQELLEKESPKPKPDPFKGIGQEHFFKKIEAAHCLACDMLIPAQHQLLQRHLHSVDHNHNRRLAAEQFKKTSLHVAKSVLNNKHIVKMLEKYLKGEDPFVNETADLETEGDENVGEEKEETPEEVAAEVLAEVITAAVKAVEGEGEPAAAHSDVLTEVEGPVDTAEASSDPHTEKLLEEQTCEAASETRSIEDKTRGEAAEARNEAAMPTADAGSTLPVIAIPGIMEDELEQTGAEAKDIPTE
UniProt Q8CHI8: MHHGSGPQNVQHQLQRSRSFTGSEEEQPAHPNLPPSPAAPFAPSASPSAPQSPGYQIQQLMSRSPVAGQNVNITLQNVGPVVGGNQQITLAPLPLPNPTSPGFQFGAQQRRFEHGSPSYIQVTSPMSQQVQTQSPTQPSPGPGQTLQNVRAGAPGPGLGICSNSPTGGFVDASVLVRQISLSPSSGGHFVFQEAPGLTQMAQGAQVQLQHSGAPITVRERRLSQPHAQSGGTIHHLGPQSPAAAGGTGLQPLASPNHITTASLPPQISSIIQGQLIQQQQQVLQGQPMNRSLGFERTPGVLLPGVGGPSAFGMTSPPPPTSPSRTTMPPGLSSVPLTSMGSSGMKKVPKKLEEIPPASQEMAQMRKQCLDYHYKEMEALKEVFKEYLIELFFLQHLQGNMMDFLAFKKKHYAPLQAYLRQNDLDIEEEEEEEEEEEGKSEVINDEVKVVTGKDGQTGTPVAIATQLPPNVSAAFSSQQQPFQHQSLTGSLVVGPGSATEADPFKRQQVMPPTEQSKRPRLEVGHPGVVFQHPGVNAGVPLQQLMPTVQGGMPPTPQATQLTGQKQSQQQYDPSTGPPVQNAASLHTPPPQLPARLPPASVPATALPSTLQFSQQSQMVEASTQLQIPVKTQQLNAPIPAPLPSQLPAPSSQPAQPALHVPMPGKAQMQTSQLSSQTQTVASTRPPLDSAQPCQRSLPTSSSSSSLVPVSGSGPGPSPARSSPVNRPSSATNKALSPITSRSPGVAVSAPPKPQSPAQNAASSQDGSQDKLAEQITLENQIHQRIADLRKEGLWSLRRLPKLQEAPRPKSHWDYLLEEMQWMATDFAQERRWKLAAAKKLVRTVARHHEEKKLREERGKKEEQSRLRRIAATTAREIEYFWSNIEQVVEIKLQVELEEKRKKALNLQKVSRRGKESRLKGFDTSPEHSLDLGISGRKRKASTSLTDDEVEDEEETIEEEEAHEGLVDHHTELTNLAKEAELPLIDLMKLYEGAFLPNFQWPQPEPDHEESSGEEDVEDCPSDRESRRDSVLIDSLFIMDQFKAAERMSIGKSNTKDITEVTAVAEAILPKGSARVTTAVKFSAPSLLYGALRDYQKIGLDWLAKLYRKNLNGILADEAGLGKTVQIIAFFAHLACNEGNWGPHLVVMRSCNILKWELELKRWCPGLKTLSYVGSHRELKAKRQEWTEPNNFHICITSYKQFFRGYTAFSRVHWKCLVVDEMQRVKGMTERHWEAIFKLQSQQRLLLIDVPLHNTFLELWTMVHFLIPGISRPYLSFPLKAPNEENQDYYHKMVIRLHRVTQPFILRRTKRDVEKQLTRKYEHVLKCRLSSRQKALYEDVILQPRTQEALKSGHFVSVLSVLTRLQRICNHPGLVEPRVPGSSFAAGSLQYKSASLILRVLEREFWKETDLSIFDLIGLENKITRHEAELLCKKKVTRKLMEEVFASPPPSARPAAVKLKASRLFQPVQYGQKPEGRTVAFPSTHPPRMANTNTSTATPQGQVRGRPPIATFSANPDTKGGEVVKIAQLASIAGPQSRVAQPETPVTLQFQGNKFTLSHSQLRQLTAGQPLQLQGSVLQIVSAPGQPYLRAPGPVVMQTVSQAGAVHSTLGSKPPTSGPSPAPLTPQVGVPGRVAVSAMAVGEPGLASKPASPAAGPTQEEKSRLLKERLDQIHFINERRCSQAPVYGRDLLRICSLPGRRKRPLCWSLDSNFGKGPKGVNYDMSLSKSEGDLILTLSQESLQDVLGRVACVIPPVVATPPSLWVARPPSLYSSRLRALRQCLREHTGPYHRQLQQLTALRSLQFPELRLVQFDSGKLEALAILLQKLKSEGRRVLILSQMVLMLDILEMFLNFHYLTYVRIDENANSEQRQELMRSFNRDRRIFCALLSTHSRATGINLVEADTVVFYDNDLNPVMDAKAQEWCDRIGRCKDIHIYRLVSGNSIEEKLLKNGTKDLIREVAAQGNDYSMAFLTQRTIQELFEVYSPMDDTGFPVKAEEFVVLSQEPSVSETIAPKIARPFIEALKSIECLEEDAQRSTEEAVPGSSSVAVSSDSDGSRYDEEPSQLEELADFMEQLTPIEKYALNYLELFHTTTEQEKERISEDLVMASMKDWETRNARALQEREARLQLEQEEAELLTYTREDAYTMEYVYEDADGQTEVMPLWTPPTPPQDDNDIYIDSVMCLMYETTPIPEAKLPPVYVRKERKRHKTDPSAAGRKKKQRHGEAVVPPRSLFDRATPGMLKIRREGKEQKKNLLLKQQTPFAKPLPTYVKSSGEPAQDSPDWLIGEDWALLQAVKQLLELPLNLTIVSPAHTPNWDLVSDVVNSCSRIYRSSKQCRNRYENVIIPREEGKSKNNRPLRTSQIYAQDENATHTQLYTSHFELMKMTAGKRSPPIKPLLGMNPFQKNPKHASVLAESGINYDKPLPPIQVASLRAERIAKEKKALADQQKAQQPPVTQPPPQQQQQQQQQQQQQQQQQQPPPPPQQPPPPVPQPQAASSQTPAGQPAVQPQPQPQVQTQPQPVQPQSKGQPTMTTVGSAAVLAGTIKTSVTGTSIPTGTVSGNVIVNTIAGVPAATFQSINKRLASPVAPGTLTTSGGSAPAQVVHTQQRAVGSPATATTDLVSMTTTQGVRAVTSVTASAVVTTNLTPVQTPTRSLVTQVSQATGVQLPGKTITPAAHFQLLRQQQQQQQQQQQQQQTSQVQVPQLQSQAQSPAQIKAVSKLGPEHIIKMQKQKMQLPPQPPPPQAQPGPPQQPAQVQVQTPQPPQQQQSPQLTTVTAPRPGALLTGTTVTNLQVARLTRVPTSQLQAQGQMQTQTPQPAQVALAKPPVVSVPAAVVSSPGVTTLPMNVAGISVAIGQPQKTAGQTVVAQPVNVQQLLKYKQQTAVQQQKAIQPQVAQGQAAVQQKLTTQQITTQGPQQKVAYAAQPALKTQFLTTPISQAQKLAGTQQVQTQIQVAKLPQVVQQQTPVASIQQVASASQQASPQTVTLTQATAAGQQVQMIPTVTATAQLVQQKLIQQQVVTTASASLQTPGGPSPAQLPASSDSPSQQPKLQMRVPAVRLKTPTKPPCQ
UniProt Q8BX22: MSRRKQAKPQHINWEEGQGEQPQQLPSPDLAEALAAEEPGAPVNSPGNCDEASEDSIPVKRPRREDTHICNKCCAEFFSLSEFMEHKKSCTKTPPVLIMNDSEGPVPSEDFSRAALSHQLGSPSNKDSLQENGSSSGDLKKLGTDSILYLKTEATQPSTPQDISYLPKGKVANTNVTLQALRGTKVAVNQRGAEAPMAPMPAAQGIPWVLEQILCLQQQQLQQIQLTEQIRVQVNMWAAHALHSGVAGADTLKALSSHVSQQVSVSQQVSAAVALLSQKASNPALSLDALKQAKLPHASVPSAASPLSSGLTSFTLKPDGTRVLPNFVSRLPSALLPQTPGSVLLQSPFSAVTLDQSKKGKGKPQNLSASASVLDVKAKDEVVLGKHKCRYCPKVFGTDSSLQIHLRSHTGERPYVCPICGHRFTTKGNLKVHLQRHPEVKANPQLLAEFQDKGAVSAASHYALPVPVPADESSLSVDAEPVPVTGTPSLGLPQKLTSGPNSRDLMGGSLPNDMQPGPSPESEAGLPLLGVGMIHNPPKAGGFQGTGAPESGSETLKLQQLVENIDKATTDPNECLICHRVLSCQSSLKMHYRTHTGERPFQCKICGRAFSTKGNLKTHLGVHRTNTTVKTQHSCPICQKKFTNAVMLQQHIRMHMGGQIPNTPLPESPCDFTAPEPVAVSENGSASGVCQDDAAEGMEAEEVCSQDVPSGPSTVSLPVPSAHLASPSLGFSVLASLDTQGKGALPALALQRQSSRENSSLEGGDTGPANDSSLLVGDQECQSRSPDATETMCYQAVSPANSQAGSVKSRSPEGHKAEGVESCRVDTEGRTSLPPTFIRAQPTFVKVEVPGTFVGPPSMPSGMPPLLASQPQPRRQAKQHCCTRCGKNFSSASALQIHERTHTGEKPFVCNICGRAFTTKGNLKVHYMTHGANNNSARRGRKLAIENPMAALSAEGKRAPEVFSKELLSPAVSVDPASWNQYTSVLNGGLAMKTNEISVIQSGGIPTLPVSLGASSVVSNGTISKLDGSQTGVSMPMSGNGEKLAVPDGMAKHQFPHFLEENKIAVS
UniProt P97376: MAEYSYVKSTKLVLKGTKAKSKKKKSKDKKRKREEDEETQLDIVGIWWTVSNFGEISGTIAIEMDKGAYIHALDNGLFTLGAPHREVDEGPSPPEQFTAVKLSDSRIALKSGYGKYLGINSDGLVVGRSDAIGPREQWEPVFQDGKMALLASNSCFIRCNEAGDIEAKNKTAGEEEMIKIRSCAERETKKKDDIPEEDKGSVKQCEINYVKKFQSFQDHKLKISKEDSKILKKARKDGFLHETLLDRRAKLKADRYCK
UniProt Q9CQE6: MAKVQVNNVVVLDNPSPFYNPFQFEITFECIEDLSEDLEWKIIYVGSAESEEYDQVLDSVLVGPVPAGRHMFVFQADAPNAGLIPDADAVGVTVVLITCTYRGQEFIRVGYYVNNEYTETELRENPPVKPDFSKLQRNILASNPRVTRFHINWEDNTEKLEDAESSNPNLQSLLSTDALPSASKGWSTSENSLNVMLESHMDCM

No constants are given. Whether binding was seen depends on the method and setting. In cells and extracts the contact can be indirect. Here binding means that the protein was enriched with, or labelled near, the bait; the list need not be complete. For some of these results: Where a sequence is shown, tags or fusion partners need not be part of it.

For the first test, the target named is Oct4 (Pou5f1) (mouse (endogenous in 46C ESCs)) (UniProt P20263). In words: affinity purification with mass spectrometry; immunoprecipitation of endogenous Oct4 (antibody sc-8628 cross-linked to protein G Sepharose) from 1 ml 46C ESC nuclear extract, Benzonase, washes with C-100*, 4°C, boiled in SDS-loading dye; control goat IgG.
Requiem (from UniProt Q61103 1-391): the binding result is “binds”.

Regarding Ctbp2 (from UniProt P56546 1-445), the binding result is listed as “binds”.

Turning to Klf5 (from UniProt Q9Z0Z7 1-446), the binding entry is on record as “binds”.

As for Zfp462 (from UniProt B1AWL2 1-2495), the binding result is recorded as “binds”.

As for Rbpj (from UniProt P31266 1-526), the binding result is listed as “binds”.

Akap8 (from UniProt Q9DBR0 1-687): the binding result was “binds”.

On to Ep400 (from UniProt Q8CHI8 1-3072), for which the binding result is “binds”.

Turning to Mga (from UniProt A2AWL7 1-3003), the binding result is “binds”.

In the case of Rcor2 (from UniProt Q8C796 1-523), the binding result was “binds”.

In the case of Sall4 (from UniProt Q8BX22 1-1067), the binding entry is recorded as “binds”.

In the case of “Ring1B (Rnf2) (from UniProt Q9CQJ4 1-336)”, the binding result is “binds”.

Turning to Frg1 (from UniProt P97376 1-258), the binding entry is “binds”.

A further test concerns the target T1, FLAG-tagged Tcfcp2l1 (F-Tcfcp2l1) (mouse) (UniProt Q3UNW5).
T1 sequence: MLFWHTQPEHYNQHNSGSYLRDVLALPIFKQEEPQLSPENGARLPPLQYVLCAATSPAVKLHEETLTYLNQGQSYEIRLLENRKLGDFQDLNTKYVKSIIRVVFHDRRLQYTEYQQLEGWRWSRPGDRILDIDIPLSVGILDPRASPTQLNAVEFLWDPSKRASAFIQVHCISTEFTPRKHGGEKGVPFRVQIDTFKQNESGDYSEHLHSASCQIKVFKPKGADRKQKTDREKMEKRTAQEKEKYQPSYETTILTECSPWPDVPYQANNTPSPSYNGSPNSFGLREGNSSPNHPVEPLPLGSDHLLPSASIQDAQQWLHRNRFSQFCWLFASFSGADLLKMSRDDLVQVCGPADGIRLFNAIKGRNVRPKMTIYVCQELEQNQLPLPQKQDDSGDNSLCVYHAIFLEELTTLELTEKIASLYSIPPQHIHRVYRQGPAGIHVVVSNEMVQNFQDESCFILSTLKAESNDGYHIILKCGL
Description: affinity purification with mass spectrometry; FLAG-affinity purification of F-Sall4, F-Dax1, F-Tcfcp2l1 or F-Esrrb from nuclear extract of ZHBTc4-derived ESC clones, buffer C-100, Benzonase, FLAG peptide elution; two purifications each without and with doxycycline (16 hr, Oct4 removed); hits present in both -Dox purifications.
Take pnkp (from UniProt Q9JLV6 1-522): the binding entry is given as “binds”.

In the case of Klf5 (from UniProt Q9Z0Z7 1-446), the binding result is “binds”.

Prkdc (from UniProt P97313 1-4128): the binding result is listed as “binds”.

As to Msh6 (from UniProt P54276 1-1358), the binding entry is on record as “binds”.

Consider Mybl2 (from UniProt P48972 1-704), for which the binding entry is “binds”.

Take Xrcc1 (from UniProt Q60596 1-631): the binding result is reported as “binds”.

Regarding Xrcc5 (from UniProt P27641 1-732), the binding entry is listed as “binds”.

Consider Sall4 (from UniProt Q8BX22 1-1067), for which the binding result is recorded as “binds”.

In the case of Asf1a (from UniProt Q9CQE6 1-204), the binding entry is “binds”.

Take Rpa1 (from UniProt Q8VEE4 1-623): the binding entry is reported as “binds”.

Xrcc6 (from UniProt P23475 1-608): the binding entry is “binds”.

The target in another test is T2, FLAG-tagged Esrrb (F-Esrrb) (mouse) (UniProt Q61539).
T2 sequence: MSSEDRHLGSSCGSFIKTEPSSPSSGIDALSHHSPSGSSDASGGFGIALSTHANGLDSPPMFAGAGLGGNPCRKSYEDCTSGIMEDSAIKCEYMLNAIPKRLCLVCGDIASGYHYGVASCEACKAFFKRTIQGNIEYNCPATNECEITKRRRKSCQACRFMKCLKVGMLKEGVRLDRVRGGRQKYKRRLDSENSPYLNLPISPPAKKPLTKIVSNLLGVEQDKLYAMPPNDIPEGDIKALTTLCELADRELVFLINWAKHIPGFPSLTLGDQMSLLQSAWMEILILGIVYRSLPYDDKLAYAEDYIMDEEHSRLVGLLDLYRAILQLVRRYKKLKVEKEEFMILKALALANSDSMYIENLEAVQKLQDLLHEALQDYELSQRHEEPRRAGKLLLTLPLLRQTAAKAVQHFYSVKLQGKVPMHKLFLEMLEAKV
The description is as above.
In the case of Nrip (mouse (endogenous in mouse ESCs)), the binding entry is “binds”.

Regarding Sall4 (from UniProt Q8BX22 1-1067), the binding entry is on record as “binds”.

The next test concerns the target FLAG-tagged Sall4 (F-Sall4) (mouse) (UniProt Q8BX22). The description is as above.
As for Klf5 (from UniProt Q9Z0Z7 1-446), the binding entry is reported as “binds”.

For the substance Usp9x (from UniProt P70398 1-2559), the binding result is listed as “binds”.

A further test addresses T3, FLAG-tagged Dax1 (F-Dax1) (mouse) (UniProt Q61066).
T3 sequence: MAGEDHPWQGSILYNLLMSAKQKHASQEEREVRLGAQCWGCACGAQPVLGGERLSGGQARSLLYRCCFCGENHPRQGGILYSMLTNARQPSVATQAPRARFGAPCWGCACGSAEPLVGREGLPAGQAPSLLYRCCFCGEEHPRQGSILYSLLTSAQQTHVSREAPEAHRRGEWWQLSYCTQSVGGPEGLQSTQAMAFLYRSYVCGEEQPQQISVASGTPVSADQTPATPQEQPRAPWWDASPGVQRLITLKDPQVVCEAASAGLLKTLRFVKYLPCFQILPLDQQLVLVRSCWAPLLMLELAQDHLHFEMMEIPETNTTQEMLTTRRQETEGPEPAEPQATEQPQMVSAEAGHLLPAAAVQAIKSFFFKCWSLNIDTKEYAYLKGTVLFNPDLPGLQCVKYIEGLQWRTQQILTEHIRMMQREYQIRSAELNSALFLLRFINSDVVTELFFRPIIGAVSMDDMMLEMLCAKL
The description is as above.
For Sall4 (from UniProt Q8BX22 1-1067), the binding result was “binds”.

For another test, the target named is FLAG-Oct4 (F-Oct4) (mouse) (UniProt P20263). Description: affinity purification with mass spectrometry; FLAG-affinity purification of F-Oct4 from 1.5 ml ESC nuclear extract on anti-FLAG M2 agarose, buffer C-100 (20 mM HEPES pH 7.6, 100 mM KCl), washes with 0.02% NP-40, Benzonase, 4°C, FLAG peptide elution; three purifications; control ZHBTc4 extract.
As for Requiem (from UniProt Q61103 1-391), the binding result was “binds”.

With Ctbp2 (from UniProt P56546 1-445), the binding entry was “binds”.

As to Klf5 (from UniProt Q9Z0Z7 1-446), the binding result is listed as “binds”.

With Zfp462 (from UniProt B1AWL2 1-2495), the binding result is listed as “binds”.

With Rbpj (from UniProt P31266 1-526), the binding entry was “binds”.

On to Akap8 (from UniProt Q9DBR0 1-687), for which the binding entry was “binds”.

Turning to Ep400 (from UniProt Q8CHI8 1-3072), the binding result was “binds”.

On to Mga (from UniProt A2AWL7 1-3003), for which the binding result was “binds”.

Regarding Rcor2 (from UniProt Q8C796 1-523), the binding result is given as “binds”.

Sall4 (from UniProt Q8BX22 1-1067): the binding entry is given as “binds”.

In the case of “Ring1B (Rnf2) (from UniProt Q9CQJ4 1-336)”, the binding result is “binds”.

Take “Brg1 (Smarca4) (from UniProt Q3TKT4 1-1613)”: the binding entry was “binds”.

On to Frg1 (from UniProt P97376 1-258), for which the binding entry was “binds”.

In the case of “Baf155 (Smarcc1) (from UniProt P97496 1-1104)”, the binding entry was “binds”.

As to Rif1 (from UniProt Q6PR54 1-2419), the binding result is listed as “binds”.
